Taken from: PubChem BioAssay AID686943 (Drosophila RNAi Screening Center, 2013)
Aim: 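Fly genes whose loss alters ERK activation after insulin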 (primary screen). Cells: Drosophila S2R+ haemocyte-like cells expressing YFP-tagged ERK (Rolled). Reagents: long dsRNA against Drosophila genes. Challenge: insulin stimulation versus unstimulated cells; dose and duration not given. Read-out: 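Antibody staining for doubly phosphorylated ERK divided by ERK-YFP signal, as plate z-scores, in insulin-treated and untreated cells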. Reading the numbers: replicate 1, z-score of dpERK with insulin and replicate 2, z-score of dpERK with insulin: higher = more active ERK per ERK-YFP after insulin; replicate 1, z-score of dpERK under basal conditions: higher = more basal active ERK per ERK-YFP; replicate 1, z-score of ERK-YFP with insulin: higher = more YFP-tagged ERK signal.
The screen tested about 23,000 reagents; shown is an unselected part of those with a known target gene and a result. 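Extra replicates exist only for a retested subset of genes; insulin dose and duration not given; both raised and lowered dpERK matter.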 Reagents against one gene are numbered here. A plus sign joins genes that one reagent is predicted to hit. Not stated in the record: the amount of reagent, the time to read-out.

gene knocked down,dsRNA no.,"replicate 1, z-score of dpERK with insulin","replicate 2, z-score of dpERK with insulin","replicate 1, z-score of dpERK under basal conditions","replicate 1, z-score of ERK-YFP with insulin"
Ns3,1,0.73,-0.26,-0.3,-0.07
lbl,1,0.8,0.13,1.95,0.23
Dop2R,1,0.53,-0.01,0.32,-0.18
Dop2R,2,0.26,0.15,-0.3,-0.05
CG13229,1,-0.05,-0.59,-0.45,0.1
trk,1,0.04,0.56,0.57,0.41
par-1,1,-1.66,-2.43,-2.93,-1.55
par-1,2,0.02,0.41,0.55,0.23
par-1,3,-0.21,0.29,1.01,0.29
par-1,4,-1.39,-1.27,-0.87,0.61
par-1,5,-0.18,0.44,1.03,0.19
Tsp42Eb + CG30160,1,-0.44,1.06,2.5,0.05
Tsp42Eb + CG30160,2,0.4,0.97,-0.18,0.25
Cyp6a22,1,0.11,-0.17,-0.57,-0.08
MED21,1,0.63,0.73,2.37,-0.16
CG3511,1,0.31,1,-0.13,-0.2
Spn88Ea,1,1.06,-1.01,0.38,-0.14
CG12498,1,0.26,-0.05,-0.13,-0.09
Ubi-p63E,1,0.31,-1.38,-1.26,0.2
ppk21,1,-0.45,-0.25,0.17,0.11
CARPB,1,-0.59,0.14,-0.48,0.12
CARPB,2,0.74,0.28,-0.22,0.32
CG15878,1,-0.09,0.35,0.14,-0.53
CG30423,1,-0.19,-0.37,0.65,0.01
CG34327,1,0.18,-0.77,1.45,0.35
CG34327,2,-2.93,0.1,0.59,0.35
PlexA,1,0.58,-0.68,-0.09,0.31
CG7386,1,0.08,0.28,,0.13
hob,1,-0.01,-0.36,0.13,0.29
CG15332,1,0.01,-0.02,1.13,-0.03
CG10077,1,-0.4,-0.06,1.25,2.29
CG10175,1,0.08,0.22,0.58,0.65
CG10175,2,0.74,0.99,0.88,-0.05
CG10175,3,-0.02,-0.1,-0.68,-0.88
DJ-1alpha,1,-0.21,-0.06,-0.68,0.53
c(3)G,1,0.21,-0.61,-0.35,0.19
CG15262,1,-0.4,-0.18,0.26,-0.53
CG33467,1,1,-0.2,1.2,0.2
CG33467,2,0.02,0.51,-0.72,2.11
Mabi,1,-0.29,0.55,0.86,0.19
Hrs,1,-0.02,-0.4,0.12,0.09
ry,1,-0.33,-0.35,0.1,0.17
CG12159,1,-0.73,-0.1,1.33,0.47
CG10864,1,1.01,-0.21,-0.16,-0.59
CG32727,1,-0.24,-0.34,0.41,0.27
scaf,1,-0.31,0.71,0.02,0.23
IFT54,1,0.71,-1.65,-0.49,0.23
CG15023,1,0.09,-1.03,-0.14,0.43
CG2906,1,0.63,1.04,-0.13,0.41
CG12511,1,-0.72,0.37,-0.01,0.22
zormin,1,0.27,-0.46,0.37,0.42
zormin,2,0.12,0.18,-1.32,0.3
zormin,3,-0.36,0.06,0.06,0.2
zormin,4,0.32,0.27,-0.79,0.08
zormin,5,0.04,-0.03,-0.4,-0.28
zormin,6,0.03,-0.63,0.45,0.48
zormin,7,-0.19,0.71,1.51,0.12
Egfrap,1,0.06,0.38,-0.51,0.33
Egfrap,2,1.04,0.81,0.33,-1.62
CG8159,1,0.14,-0.06,0.89,-0.69
CG3687,1,0.42,-0.65,1.3,0.09
endos,1,1.55,0.88,2.17,-0.62
spen,1,1.28,0.2,-0.36,0.41
RpS2,1,-2.82,-1.07,-2.41,-2.39
CG11474,1,0.05,0.49,0.53,0.47
CG34050 (retired record),1,-2.03,-2.83,-0.85,-2.4
CG12680,1,0.73,0.13,0.11,-0.39
PIG-K,1,0.31,-0.03,1.05,0.36
CG13492,1,0.47,0.09,0.71,0.19
CG14693,1,0.8,0.82,0.23,0.18
cuff,1,0.28,-0.2,1.67,0.55
Toll-4,1,0.28,0.39,0.92,0.4
Aasdh,1,-0.16,-0.77,-0.16,-0.03

Sorted by “replicate 2, z-score of dpERK with insulin” (descending): some entries from above.
gene knocked down,dsRNA no.,"replicate 1, z-score of dpERK with insulin","replicate 2, z-score of dpERK with insulin","replicate 1, z-score of dpERK under basal conditions","replicate 1, z-score of ERK-YFP with insulin"
CG2906,1,0.63,1.04,-0.13,0.41
scaf,1,-0.31,0.71,0.02,0.23
CG12511,1,-0.72,0.37,-0.01,0.22
CG10864,1,1.01,-0.21,-0.16,-0.59
CG32727,1,-0.24,-0.34,0.41,0.27
CG15023,1,0.09,-1.03,-0.14,0.43
IFT54,1,0.71,-1.65,-0.49,0.23
